This test has as its target FLAG-tagged human MeCP2 (pFLAG-human MeCP2) (human) (UniProt P51608). As to the kind of experiment: co-IP; lysate of co-transfected SKN-SH cells (500 μg/500 μL, FLAG buffer) rotated overnight (16 h) at 4 °C with anti-FLAG beads; Western blot for Deaf1. On the technique in general: A western blot detects proteins with antibodies after separation by electrophoresis.

Amino acid sequences for entries named in this document (tags omitted).
UniProt P51608: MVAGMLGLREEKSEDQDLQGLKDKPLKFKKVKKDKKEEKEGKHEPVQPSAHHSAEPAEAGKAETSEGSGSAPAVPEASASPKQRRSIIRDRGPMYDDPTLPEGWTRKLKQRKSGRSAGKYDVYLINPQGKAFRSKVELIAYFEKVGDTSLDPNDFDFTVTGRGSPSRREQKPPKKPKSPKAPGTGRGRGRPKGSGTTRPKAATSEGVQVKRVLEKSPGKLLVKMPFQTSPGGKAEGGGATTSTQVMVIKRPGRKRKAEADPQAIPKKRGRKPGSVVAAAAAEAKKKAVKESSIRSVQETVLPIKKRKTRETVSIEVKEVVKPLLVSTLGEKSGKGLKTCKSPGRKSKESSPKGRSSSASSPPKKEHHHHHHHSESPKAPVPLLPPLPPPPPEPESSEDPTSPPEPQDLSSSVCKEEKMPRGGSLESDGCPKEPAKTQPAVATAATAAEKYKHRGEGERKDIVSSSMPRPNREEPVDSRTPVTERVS

No constants are given. Whether binding was seen depends on the method and setting. Binding seen in cells or lysates may run through a third protein. Some results given as binding are weak or reduced against the parent protein; the word gives no strength. Sequences can lack the tags named with a protein.

B1: His-tagged human Deaf1 (pcDNA3-His-human Deaf1) (protein, UniProt O75398 1-565)
chain: MEDSDSAAKQLGLAEAAAVAAAAAVAAAAAAAAGGEAEEPVLSRDEDSEEDADSEAERETPRVTAVAVMAAEPGHMDMGAEALPGPDEAAAAAAFAEVTTVTVANVGAAADNVFTTSVANAASISGHVLSGRTALQIGDSLNTEKATLIVVHTDGSIVETTGLKGPAAPLTPGPQSPPTPLAPGQEKGGTKYNWDPSVYDSELPVRCRNISGTLYKNRLGSGGRGRCIKQGENWYSPTEFEAMAGRASSKDWKRSIRYAGRPLQCLIQDGILNPHAASCTCAACCDDMTLSGPVRLFVPYKRRKKENELPTTPVKKDSPKNITLLPATAATTFTVTPSGQITTSGALTFDRASTVEATAVISESPAQGDVFAGATVQEASVQPPCRASHPEPHYPGYQDSCQIAPFPEAALPTSHPKIVLTSLPALAVPPPTPTKAAPPALVNGLELSEPRSWLYLEEMVNSLLNTAQQLKTLFEQAKHASTYREAATNQAKIHADAERKEQSCVNCGREAMSECTGCHKVNYCSTFCQRKDWKDHQHICGQSAAVTVQADEVHVAESVMEKVTV
With B1, the binding result is reported as “binds”.

For the origin of these results see article PMC5893553.
